In publication PMC11733250 one finds binding data, which are given here for two molecules.

What all share (conditions): remark: other sources report otherwise
Assay [1] has as its target T1, p23 wild-type (human co-chaperone p23, 160 amino acids) (human), Q15185.
T1 chain: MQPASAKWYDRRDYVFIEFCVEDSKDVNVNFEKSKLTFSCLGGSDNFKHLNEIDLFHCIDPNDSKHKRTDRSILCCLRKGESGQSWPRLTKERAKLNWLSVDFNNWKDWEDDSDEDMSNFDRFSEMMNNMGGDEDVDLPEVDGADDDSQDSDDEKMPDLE
In words: NMR titration; competition: 1H-15N TROSY HSQC of 15N-labeled p23 (30 µM) with unlabeled FKBP51 (60 µM); MEEVD peptide added at ten-, twenty-, thirty-fold molar excess; 25 mM HEPES, 10 mM KCl, 5 mM MgCl2, 1 mM DTT, pH 7.2, 303 K; both purified.

Assay [2] concerns the target T1, p23 wild-type (human co-chaperone p23, …). In words: NMR titration; 1H-15N TROSY HSQC of deuterated 15N-labeled p23 (WT 40 µM, 1-119 25 µM, R88A R93A 40 µM); unlabeled FKBP51 added at equimolar to three-fold or five-fold molar excess; 25 mM HEPES, 10 mM KCl, 5 mM MgCl2, 1 mM DTT, pH 7.2, 303 K; both purified.
Assay [3] deals with T2, FKBP51, Q13451.
T2 chain: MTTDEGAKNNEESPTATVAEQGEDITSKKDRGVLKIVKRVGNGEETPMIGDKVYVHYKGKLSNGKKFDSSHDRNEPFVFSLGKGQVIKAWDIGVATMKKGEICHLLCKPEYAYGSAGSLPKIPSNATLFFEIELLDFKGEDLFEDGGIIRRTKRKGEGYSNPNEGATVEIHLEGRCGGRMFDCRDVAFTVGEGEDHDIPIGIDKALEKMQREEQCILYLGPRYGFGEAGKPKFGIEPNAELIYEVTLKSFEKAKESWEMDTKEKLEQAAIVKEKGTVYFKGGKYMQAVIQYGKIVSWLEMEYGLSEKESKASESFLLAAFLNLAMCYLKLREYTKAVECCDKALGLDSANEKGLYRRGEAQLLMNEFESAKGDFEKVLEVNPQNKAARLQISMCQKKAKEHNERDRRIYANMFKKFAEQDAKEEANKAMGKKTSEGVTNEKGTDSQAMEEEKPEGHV
In words: cross-linking; p23:FKBP51:tau 1:1:1 (25 µM each), 1 mM DSS, 30 min at 25 °C; SDS-PAGE band above 220 kDa cut out, trypsin digest, mass spectrometry (pLink); both purified.

Assay [4] deals with T2, FKBP51, Q13451. In words: SEC-SAXS; 150 µM FKBP51 without or with equimolar p23, Shodex KW403-4F column; both purified.
The target of assay [5] is T2, FKBP51, Q13451. In words: NMR titration; 1H-13C HMQC/methyl-TROSY of 13C-methyl (Leu, Val) labeled FKBP51 (50 µM); unlabeled p23 (two-, five-, ten-fold) or MEEVD peptide (five-, fifteen-fold) added; 25 mM HEPES, 10 mM KCl, 5 mM MgCl2, 1 mM DTT, pH 7.6, 100% D2O, 308 K; both purified.

Results are given in words; binding and its absence hold for the method and conditions named. Some entries that bind do so weakly or less than the wild type.

B1: FKBP51, Q13451 1-457 (protein)
chain: MTTDEGAKNNEESPTATVAEQGEDITSKKDRGVLKIVKRVGNGEETPMIGDKVYVHYKGKLSNGKKFDSSHDRNEPFVFSLGKGQVIKAWDIGVATMKKGEICHLLCKPEYAYGSAGSLPKIPSNATLFFEIELLDFKGEDLFEDGGIIRRTKRKGEGYSNPNEGATVEIHLEGRCGGRMFDCRDVAFTVGEGEDHDIPIGIDKALEKMQREEQCILYLGPRYGFGEAGKPKFGIEPNAELIYEVTLKSFEKAKESWEMDTKEKLEQAAIVKEKGTVYFKGGKYMQAVIQYGKIVSWLEMEYGLSEKESKASESFLLAAFLNLAMCYLKLREYTKAVECCDKALGLDSANEKGLYRRGEAQLLMNEFESAKGDFEKVLEVNPQNKAARLQISMCQKKAKEHNERDRRIYANMFKKFAEQDAKEEANKAMGKKTSEGVTNEKGTDSQAMEEEKPEGHV
As to B1, the binding result in assay [1] and in assay [2] was “binds” each time.

B2: p23 wild-type (human co-chaperone p23, 160 amino acids), Q15185 1-160 (natural protein)
chain: MQPASAKWYDRRDYVFIEFCVEDSKDVNVNFEKSKLTFSCLGGSDNFKHLNEIDLFHCIDPNDSKHKRTDRSILCCLRKGESGQSWPRLTKERAKLNWLSVDFNNWKDWEDDSDEDMSNFDRFSEMMNNMGGDEDVDLPEVDGADDDSQDSDDEKMPDLE
Regarding B2, the binding entry in assay [3], in assay [4] and in assay [5] was “binds” each time.
